Experimental data taken from doi:10.1101/2024.11.26.625568.
Results are given in words; binding and its absence hold for the method and conditions named. Some binding calls cover weakened binding; strength is not graded here. Each block holds one binder with its values, some of them ahead of it.

How the values were obtained:
NuMA MTBD2 (human) = NuMA MTBD2 (human) (UniProt Q14980); test: mass photometry; single protein diluted to 5-20 nM in 50 mM HEPES pH 7.4, 150 mM NaCl, 1 mM EGTA, 10% glycerol; TwoMP mass photometer; both purified
NuMA Bonsai (human) = target: T1, NuMA Bonsai (human) (UniProt Q14980); test: single-molecule comigration on microtubules (TIRF); labelled LGN added to DDN complexes (dynein, dynactin, NuMA FL or Bonsai, Lis1) moving on unlabeled MTs; both purified
T1 sequence: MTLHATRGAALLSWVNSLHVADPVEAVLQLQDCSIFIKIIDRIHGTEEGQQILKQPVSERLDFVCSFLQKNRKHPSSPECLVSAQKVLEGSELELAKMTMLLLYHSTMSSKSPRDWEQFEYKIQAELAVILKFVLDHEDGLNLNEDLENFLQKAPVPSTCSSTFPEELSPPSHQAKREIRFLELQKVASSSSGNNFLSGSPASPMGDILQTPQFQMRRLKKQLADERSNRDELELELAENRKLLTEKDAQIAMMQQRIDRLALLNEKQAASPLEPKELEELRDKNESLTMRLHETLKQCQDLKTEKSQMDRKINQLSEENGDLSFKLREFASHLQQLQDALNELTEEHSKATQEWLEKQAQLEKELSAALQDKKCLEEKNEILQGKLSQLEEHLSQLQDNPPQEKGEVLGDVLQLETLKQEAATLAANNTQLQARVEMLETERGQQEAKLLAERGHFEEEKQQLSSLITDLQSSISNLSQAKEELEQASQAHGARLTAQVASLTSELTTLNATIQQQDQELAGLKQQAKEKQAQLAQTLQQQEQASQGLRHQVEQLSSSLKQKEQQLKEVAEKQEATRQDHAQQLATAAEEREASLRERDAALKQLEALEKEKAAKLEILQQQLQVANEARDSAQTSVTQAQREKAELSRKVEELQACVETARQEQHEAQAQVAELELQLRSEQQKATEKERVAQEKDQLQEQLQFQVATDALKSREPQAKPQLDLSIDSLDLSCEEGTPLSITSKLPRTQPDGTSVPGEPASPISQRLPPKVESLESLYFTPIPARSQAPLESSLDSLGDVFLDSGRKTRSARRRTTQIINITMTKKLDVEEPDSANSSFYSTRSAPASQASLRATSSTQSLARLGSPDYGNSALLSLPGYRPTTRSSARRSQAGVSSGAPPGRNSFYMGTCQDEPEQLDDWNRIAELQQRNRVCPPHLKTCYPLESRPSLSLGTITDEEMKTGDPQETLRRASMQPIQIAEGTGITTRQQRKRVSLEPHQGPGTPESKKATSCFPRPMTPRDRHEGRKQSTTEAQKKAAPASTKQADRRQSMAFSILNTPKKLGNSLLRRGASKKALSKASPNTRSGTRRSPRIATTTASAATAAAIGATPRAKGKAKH

Full-length NuMA (human) [1] = target: Full-length NuMA (human) (UniProt Q14980); test: as above
[2] = target: TPR domain of LGN (a.a. 1-409) (human) (UniProt P81274); test: mass photometry; single protein diluted to 5-20 nM in 50 mM HEPES pH 7.4, 150 mM NaCl, 1 mM EGTA, 10% glycerol; TwoMP mass photometer; both purified
Full-length NuMA (human) [3] = target: Full-length NuMA (human) (UniProt Q14980); test: three-colour TIRF imaging on surface-immobilised microtubules; LD655-labelled LGN (470 nM) with or without NuMA-mNG, mixed 3 min on ice, flowed over immobilised Cy3 MTs; both purified
NuMA C (human), Q14980 = target: T2, NuMA C (human), Q14980; test: mass photometry; single protein diluted to 5-20 nM in 50 mM HEPES pH 7.4, 150 mM NaCl, 1 mM EGTA, 10% glycerol; TwoMP mass photometer; both purified; conditions: remark: other sources report otherwise
T2 chain: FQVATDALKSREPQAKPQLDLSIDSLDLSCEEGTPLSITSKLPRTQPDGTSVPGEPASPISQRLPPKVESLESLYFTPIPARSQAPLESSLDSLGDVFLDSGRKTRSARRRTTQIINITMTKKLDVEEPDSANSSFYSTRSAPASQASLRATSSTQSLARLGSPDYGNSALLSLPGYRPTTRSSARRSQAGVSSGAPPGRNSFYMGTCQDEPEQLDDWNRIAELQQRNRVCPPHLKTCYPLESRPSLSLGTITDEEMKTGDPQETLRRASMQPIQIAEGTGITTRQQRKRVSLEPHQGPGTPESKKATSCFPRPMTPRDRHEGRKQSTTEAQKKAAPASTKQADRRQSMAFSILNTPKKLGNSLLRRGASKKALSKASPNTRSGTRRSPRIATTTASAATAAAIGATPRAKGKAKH

B1: NuMA MTBD2 (domain or fragment, UniProt Q14980 2002-2115)
chain: ESKKATSCFPRPMTPRDRHEGRKQSTTEAQKKAAPASTKQADRRQSMAFSILNTPKKLGNSLLRRGASKKALSKASPNTRSGTRRSPRIATTTASAATAAAIGATPRAKGKAKH
binding (NuMA MTBD2 (human)): no binding (tested: 5–20 nM)

binding (NuMA Bonsai (human)): binds
binding (Full-length NuMA (human) [1]): binds
binding [2]: no binding (tested: 5–20 nM)
binding (Full-length NuMA (human) [3]): binds
B2: TPR domain of LGN (a.a. 1-409) (domain or fragment, UniProt P81274 1-409)
chain: MEENLISMREDHSFHVRYRMEASCLELALEGERLCKSGDCRAGVSFFEAAVQVGTEDLKTLSAIYSQLGNAYFYLHDYAKALEYHHHDLTLARTIGDQLGEAKASGNLGNTLKVLGNFDEAIVCCQRHLDISRELNDKVGEARALYNLGNVYHAKGKSFGCPGPQDVGEFPEEVRDALQAAVDFYEENLSLVTALGDRAAQGRAFGNLGNTHYLLGNFRDAVIAHEQRLLIAKEFGDKAAERRAYSNLGNAYIFLGEFETASEYYKKTLLLARQLKDRAVEAQSCYSLGNTYTLLQDYEKAIDYHLKHLAIAQELNDRIGEGRACWSLGNAYTALGNHDQAMHFAEKHLEISREVGDKSGELTARLNLSDLQMVLGLSYSTNNSIMSENTEIDSSLNGVRPKLGRRHSM
modifications: LD655 dye on the SNAP tag (unlabeled LGN in some assays)

binding (NuMA C (human), Q14980): no binding (tested: 5–20 nM)
B3: NuMA C, Q14980 1700-2115 (domain or fragment)
chain: T2 chain
